# According to PubChem BioAssay AID504834 (National Center for Advancing Translational Sciences (NCATS), 2011):
# The campaign covered roughly 320,000 compounds. About 22,000 (6.9%) were called active. This list was built around the results that the source calls inconclusive (neither active nor inactive); the mix of calls is not that of the screen. Calls follow the shape of the dose curve; as a rule, active = well fitted inhibition curve with a large enough effect; inconclusive = small, poorly fitted or top-dose-only effect, or another doubt; inactive = no such curve, though single readings can be large or run the other way. Potencies beside an inconclusive call are fits to weak or partial responses and may not hold up.
# Assay: Primary qHTS for delayed death inhibitors of the malarial parasite plastid, 96 hour incubation
# Details: P. falciparum luciferase reporter growth; series mostly up to 28.7 µM
# Summary of the method: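 Readout is luminescence from an integrated firefly luciferase in P. falciparum. Red cells, 2% hematocrit and 0.05% parasitemia final, were cultured with compound through two parasite generations (96 hours) at 37 C, 5% CO2.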
# Potency is read from the fitted curve at half-maximal effect.
row,Compound,Potency
1,Cc1ccc(NC(=O)CCNS(=O)(=O)c2ccc3c(c2)CCC(=O)N3)cc1F,active: 9.28 µM
2,O=C1CC(N2CCCc3ccccc32)C(=O)N1c1ccccc1 (stereo unspecified),active: 11.7 µM
3,CC(C)Nc1nnc(SCC(=O)c2c[nH]c3ccccc23)s1,active: 10.4 µM
4,CC1Cc2ccccc2N1C(=O)c1ccnc(C(C)(C)C)c1 (stereo unspecified),inactive
5,O=C(N=C1SC2CS(=O)(=O)CC2N1c1ccccc1)c1cccc([N+](=O)[O-])c1 (stereo unspecified),"inconclusive: 9.28 µM [inhibitor, single point]"
6,CNc1nc2c(C)cccn2c(=O)c1C=NCc1ccccc1,inactive
7,CN1C(=O)C(C)(C)c2cc(S(=O)(=O)NCc3ccc(C(=O)NCc4ccco4)cc3)ccc21,"inconclusive: 18.5 µM [inhibitor, single point]"
8,O=C(C1=C(O)C(=O)N(c2nc3ccc(Cl)cc3s2)C1c1ccco1)c1ccco1 (stereo unspecified),inactive
9,Cc1ccc(-n2cc(-c3ccccc3)c3c(N4CCOCC4)ncnc32)cc1,"inconclusive: 16.5 µM [inhibitor, single point]"
10,COc1ccc(CCNC(=O)C(=O)c2c(C)[nH]c3ccccc23)cc1,"inconclusive: 18.5 µM [inhibitor, single point]"
11,Nc1nc(COC(=O)C2CC(=O)N(Cc3ccccc3)C2)nc(Nc2ccccc2)n1 (stereo unspecified),"inconclusive: 18.5 µM [inhibitor, partial curve, poor fit]"
12,CCn1c(SCC(=O)c2ccc3c(c2)OCCO3)nnc1-c1ccco1,inactive
13,COc1ccc2[nH]cc(C(=O)CN3CCC(C)CC3)c2c1,"inconclusive: 7.38 µM [inhibitor, partial curve, poor fit]"
14,COc1cccc(/C=C/C(=O)OCC(=O)N2c3ccccc3NC(=O)C2(C)C)c1,"inconclusive: 18.5 µM [inhibitor, single point]"
15,COc1ccccc1CNC(=O)c1cc(=O)c2ccccc2o1,"inconclusive: 11.7 µM [inhibitor, single point]"
16,CNC(=O)N(O)C1N(c2ccccc2)C(=S)SC1(C)C (stereo unspecified),active: 2.08 µM
17,Cc1ccc(N(C)S(=O)(=O)c2cccc(C(=O)NCC(c3ccco3)N3CCCC3)c2)cc1 (stereo unspecified),active: 3.29 µM
18,O=C(CCC(=O)Nc1ccc(Cl)cc1)N/N=C/c1ccc2c(c1)OCO2,"inconclusive: 10.4 µM [inhibitor, partial curve, poor fit]"
19,COc1ccc(S(=O)(=O)N2CCCCCC2)cc1C(=O)N(C)Cc1cccc(OC)c1OC,"inconclusive: 8.28 µM [inhibitor, partial curve]"
20,Cc1c(C)c2ccc(OCC(=O)NCCN3CCOCC3)c(C)c2oc1=O,inactive
21,O=[N+]([O-])c1c(NCc2ccccc2)cc(N2CCc3ccccc3C2)c2nonc12,"inconclusive: 7.38 µM [inhibitor, partial curve, poor fit]"
22,CCOc1ccc(NC(=O)CSc2nc(-c3cccs3)cc(C(F)(F)F)n2)c([N+](=O)[O-])c1,inactive
23,Cc1ccc([N+](=O)[O-])cc1NC(=O)CN(C(=O)c1ccc(Cl)cc1)C1CCCCC1,inactive
24,Cc1ccc(S(=O)(=O)/N=C/c2ccc(N(C)C)cc2)cc1,inactive

row,Compound,Potency
1,COc1ccc(NC(=O)/C(Cl)=C(/Cl)S(=O)Cc2ccc(Cl)cc2)cn1 (stereo unspecified),"inconclusive: 4.15 µM [inhibitor, full curve, poor fit]"
2,CCO[C@@H]1OC(C(=O)Nc2ccccc2)=C[C@H](c2csc3ccccc23)[C@H]1CCCO,"inconclusive: 0.928 µM [inhibitor, full curve]"
3,Cc1c(CN2CCC(CO)(CCOc3ccccc3)CC2)[nH]c2c(Cl)cccc12,inactive
4,Cc1cc(OC(C)C(=O)NCC(O)c2ccccc2)c2c3c(c(=O)oc2c1)CCCC3 (stereo unspecified),"inconclusive: 18.5 µM [inhibitor, partial curve, poor fit]"
5,CCO[C@@H]1OC(C(=O)NC2CC2)=C[C@H](c2ccc(C(F)(F)F)cc2)[C@H]1CCCO,inactive
6,O=C(Nc1ccc(F)cc1)N1CCOCC1,"inconclusive: 18.5 µM [inhibitor, single point]"
7,COCCn1c(-c2ccc(Cl)cc2)cnc1SCC(=O)NCc1cccs1,"inconclusive: 18.5 µM [inhibitor, single point]"
8,O=C(COc1ccccc1-c1ccccc1)N/N=C/c1cccc2ccccc12,active: 9.28 µM
9,Cc1ccc(C)c(N2CCN(C(=O)COc3cc(=O)n(C)c4ccccc34)CC2)c1,inactive
10,CCc1nc(SCc2ccc(C(=O)OC)o2)c2c(=O)n(C)c(=O)n(C)c2n1,active: 2.62 µM
11,CC(=O)c1ccc(S(=O)(=O)Nc2ccc(C(=O)NCCCn3ccnc3)cc2)cc1,"inconclusive: 18.5 µM [inhibitor, partial curve, poor fit]"
12,COC(=O)CNC(=O)Cc1c(F)cccc1Cl,"inconclusive: 10.4 µM [inhibitor, partial curve, poor fit]"
13,CCCCNC(=S)Nc1cccc(C(C)=O)c1,inactive
14,O=C(c1ccc(F)cc1)N1CCC(O)(c2cccnc2)CC1,"inconclusive: 9.28 µM [inhibitor, partial curve, poor fit]"
15,Cc1[nH][nH]c(=O)c1C=NCc1cccnc1,"inconclusive: 1.85 µM [inhibitor, partial curve]"
16,Cc1ccc(C(=O)Oc2ccc3c(c2)ncn3C)cc1,inactive
17,COc1ccc2[nH]c3c(c2c1)CCN1C(=O)N([C@@H](C)C(=O)NCC2CCCO2)C(=O)[C@]31C (stereo partly specified),"inconclusive: 13.1 µM [inhibitor, single point]"
18,Cc1ccc(C)c(N(C(=O)c2nsc(Cl)c2Cl)C(C(=O)NC2CCCC2)c2ccc(O)cc2)c1 (stereo unspecified),"inconclusive: 18.5 µM [inhibitor, single point]"
19,CCN(CCn1cccn1)C(=O)CCc1nnc(-c2ccccc2)o1,"inconclusive: 11.7 µM [inhibitor, single point]"
20,Cc1cc(C(=O)O)cc(S(=O)(=O)Nc2ccccc2C(=O)NC(C)c2ccccc2)c1C (stereo unspecified),inactive
21,COc1ccc(N/C=C/C(=O)C(C)(C)C)cc1,"inconclusive: 0.828 µM [inhibitor, single point]"
22,Cc1c(C(=O)Nc2ccccc2N2CCN(C)CC2)oc2ccc(F)cc12,"inconclusive: 18.5 µM [inhibitor, single point]"
23,N#Cc1c(C(F)(F)F)cc(-c2ccccc2)nc1SCc1nc(N)nc(N2CCOCC2)n1,"inconclusive: 3.29 µM [inhibitor, partial curve]"
24,O=C(CN1CCN(C(=O)C2COc3ccccc3O2)CC1)Nc1ccccc1 (stereo unspecified),inactive

row,Compound,Potency
1,COc1cc(/C=C/C(=O)N2CCCN(C(=O)/C=C/c3cc(OC)c(OC)c(OC)c3)CC2)cc(OC)c1OC,inactive
2,CN1C(=O)/C(=C\c2ccncc2)SC1=Nc1ccccc1,"inconclusive: 18.5 µM [inhibitor, single point]"
3,COc1cc2c(cc1OC)C(C(=O)NCCC(C)C)C1CCCCN1C2=O (stereo unspecified),"inconclusive: 4.15 µM [inhibitor, single point]"
4,Cc1nc(SCC(=O)Nc2ccc(F)cc2)c(C#N)c(C)c1CC(=O)c1ccc(Br)cc1,"inconclusive: 16.5 µM [inhibitor, single point]"
5,Cc1ccccc1CC(=O)N1CCCc2ccccc21,"inconclusive: 18.5 µM [inhibitor, single point]"
6,Cc1c(NC(=S)N/C(=N/S(=O)(=O)c2ccccc2)c2ccccc2)c(=O)n(-c2ccccc2)n1C,inactive
7,COc1ccc(/C=C2/SC(=O)N(CCNC(=O)C3CCCN3C(=O)c3cccs3)C2=O)cc1 (stereo unspecified),"inconclusive: 11.7 µM [inhibitor, partial curve]"
8,COC(=O)c1cc(OC)c(OC)cc1NC(=S)Nc1cccc(C(C)=O)c1,"inconclusive: 18.5 µM [inhibitor, single point]"
9,CC1=C(C(=O)OCC2CCCO2)C(c2ccccc2)C2=C(CC(C)(C)CC2=O)N1 (stereo unspecified),inactive
10,CC(=O)c1ccc(S(=O)(=O)N2CCCCC2C(=O)O)cc1 (stereo unspecified),"inconclusive: 11.7 µM [inhibitor, partial curve, poor fit]"
11,CC(=O)C[C@H](O)CC(=O)[C@H]1OC(=O)CCCCCCCc2ccccc21,"inconclusive: 10.4 µM [inhibitor, single point]"
12,COc1ccc(OCCCN2CCc3ccccc3C2)cc1,inactive
13,N#Cc1ccc(-c2csc(NNC(=O)c3ccc(Br)cc3)n2)cc1,active: 2.94 µM
14,O=c1cc(CO)occ1O,inactive
15,FC(F)(F)/C(=N\P(=S)(N1CCOCC1)N1CCOCC1)N1CCOCC1,"inconclusive: 13.1 µM [inhibitor, single point]"
16,C=CCC1(CC=C)CCCN1C(=O)c1cc(COc2ccc(F)c(F)c2)on1,inactive
17,CNc1nc2c(c(=O)n(C)c(=O)n2C)n1CCCc1ccccc1,"inconclusive: 10.4 µM [inhibitor, single point]"
18,O=C(N/N=C/c1ccc(Cl)c([N+](=O)[O-])c1)c1cc(-c2ccc3c4c(cccc24)CC3)n[nH]1,"inconclusive: 16.5 µM [inhibitor, single point]"
19,CNc1nnc(CSc2nc(C)cc(C)n2)s1,"inconclusive: 0.0029 µM [inhibitor, full curve, poor fit]"
20,CC(C)NC(=O)c1ccccc1S(=O)(=O)c1ccccc1C#N,inactive
21,CCN1CCCCC(=N/O)/C(=N/O)CCCC1,inactive
22,CCCCCC(=O)Nc1cc(S(=O)(=O)N2CCCCC2)ccc1N1CCOCC1,"inconclusive: 9.28 µM [inhibitor, partial curve]"
23,CCCOC(=O)c1[nH]c2c(c1C)C(=O)CC(c1ccc(OC)c(OC)c1)C2 (stereo unspecified),"inconclusive: 16.5 µM [inhibitor, single point]"

# Given tab-delimited: entries from further up.
row	Compound	Potency
15	FC(F)(F)/C(=N\P(=S)(N1CCOCC1)N1CCOCC1)N1CCOCC1	inconclusive: 13.1 µM [inhibitor, single point]
16	C=CCC1(CC=C)CCCN1C(=O)c1cc(COc2ccc(F)c(F)c2)on1	inactive
17	CNc1nc2c(c(=O)n(C)c(=O)n2C)n1CCCc1ccccc1	inconclusive: 10.4 µM [inhibitor, single point]
18	O=C(N/N=C/c1ccc(Cl)c([N+](=O)[O-])c1)c1cc(-c2ccc3c4c(cccc24)CC3)n[nH]1	inconclusive: 16.5 µM [inhibitor, single point]
19	CNc1nnc(CSc2nc(C)cc(C)n2)s1	inconclusive: 0.0029 µM [inhibitor, full curve, poor fit]
